Data published in article PMC7179226, “Sulfonamide Inhibition Studies of the β-Class Carbonic Anhydrase CAS3 from the Filamentous Ascomycete Sordaria macrospora” (Molecules, 2020).

What was measured:
CAS3 [1] = target: T1, CAS3 (Sordaria macrospora, UniProt F7VU04); assay: stopped-flow CO2 hydration inhibition assay; format: biochemical
T1 construct: gene SMAC_03179; primers imply N-terminus (M)MPVTNEE and C-terminus KTVRVV-LE-His6

CAS3 [2] = target: T2, CAS3 (Sordaria macrospora, UniProt F7VU04); assay: biochemical; settings: read-out: KI* (nM) / CAS3 ^c / β
T2 construct: gene SMAC_03179; primers imply N-terminus (M)MPVTNEE and C-terminus KTVRVV-LE-His6
T2 sequence (F7VU04 1-174): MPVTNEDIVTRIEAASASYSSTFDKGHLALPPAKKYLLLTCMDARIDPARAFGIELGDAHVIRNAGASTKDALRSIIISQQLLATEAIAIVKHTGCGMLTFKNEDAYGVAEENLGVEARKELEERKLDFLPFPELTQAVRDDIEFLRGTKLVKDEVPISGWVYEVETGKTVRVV
Protocol: An Applied Photophysics stopped-flow instrument was used for assaying the CA catalyzed CO2 hydration activity. The pH indicator used was bromothymol blue at a concentration of 0.2 mM, working at the absorbance maximum of 557 nm. The buffer used was 20 mM Tris (pH 8.3), and 20 mM Na2SO4 was added to this buffer for maintaining constant the ionic strength (sulfate is not inhibitory and has a KI > 200 mM against this enzyme; data not shown). The initial rates of the CA-catalyzed CO2 hydration were followed for a period of 10–100 s for each assay. The CO2 concentrations ranged from 1.7 to 17 mM for determining kinetic parameters of the reaction and the inhibition constants of tested inhibitors. For each measurement, six traces of the initial 5%–10% of the reaction were used for determining the initial velocity. Then, 10-fold decreasing dilution of inhibitor solutions, ranging from 1 nM and 100 µM were employed for determining the inhibition constants. Uncatalyzed rates were determined in the same manner and subtracted from total observed rates. Stock solutions of inhibitor (0.1 mM) were prepared in distilled deionized water, and dilutions up to 1 nM were done thereafter with the assay buffer. […] The inhibition constants measured by this method are in excellent agreement with the dissociation constants measured by native mass spectrometry.

| Ki (CAS3 [1]) [nM] | Ki (CAS3 [2]) [nM] | SMILES |
| --- | --- | --- |
| 90 ± 7.1 | – | Nc1ccc(S(N)(=O)=O)cc1 [compound 1, sulfanilamide] |
| – | 84 ± 5.6 | Nc1ccc(S(N)(=O)=O)cc1 [compound 2] |
